Test results published in publication PMC10616178.
These are yes or no findings as the source states them, for the method shown. Binding seen in cells or lysates may run through a third protein. Some entries that bind do so weakly or less than the wild type.

Protein sequences, listed by entry. Tags and fused reporters are not part of them.
UniProt Q9CUN6: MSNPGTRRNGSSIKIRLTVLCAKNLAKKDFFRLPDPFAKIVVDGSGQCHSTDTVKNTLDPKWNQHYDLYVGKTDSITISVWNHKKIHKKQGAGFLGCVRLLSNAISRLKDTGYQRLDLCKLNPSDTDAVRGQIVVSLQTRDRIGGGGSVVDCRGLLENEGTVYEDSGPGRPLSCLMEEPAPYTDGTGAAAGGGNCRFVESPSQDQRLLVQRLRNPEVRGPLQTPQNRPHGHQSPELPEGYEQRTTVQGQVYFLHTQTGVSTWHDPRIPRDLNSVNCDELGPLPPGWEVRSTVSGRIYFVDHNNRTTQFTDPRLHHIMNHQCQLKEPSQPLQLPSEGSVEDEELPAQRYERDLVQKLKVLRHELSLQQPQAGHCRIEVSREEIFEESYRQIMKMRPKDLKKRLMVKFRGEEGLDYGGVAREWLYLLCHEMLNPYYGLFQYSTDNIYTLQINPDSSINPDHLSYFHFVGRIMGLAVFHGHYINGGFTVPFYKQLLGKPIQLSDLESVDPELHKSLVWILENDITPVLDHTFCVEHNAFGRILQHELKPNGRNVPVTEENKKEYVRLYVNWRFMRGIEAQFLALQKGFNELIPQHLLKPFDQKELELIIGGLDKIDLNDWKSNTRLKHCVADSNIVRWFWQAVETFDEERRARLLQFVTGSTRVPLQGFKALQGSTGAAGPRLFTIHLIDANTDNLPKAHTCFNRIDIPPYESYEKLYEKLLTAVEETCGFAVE
UniProt P26039: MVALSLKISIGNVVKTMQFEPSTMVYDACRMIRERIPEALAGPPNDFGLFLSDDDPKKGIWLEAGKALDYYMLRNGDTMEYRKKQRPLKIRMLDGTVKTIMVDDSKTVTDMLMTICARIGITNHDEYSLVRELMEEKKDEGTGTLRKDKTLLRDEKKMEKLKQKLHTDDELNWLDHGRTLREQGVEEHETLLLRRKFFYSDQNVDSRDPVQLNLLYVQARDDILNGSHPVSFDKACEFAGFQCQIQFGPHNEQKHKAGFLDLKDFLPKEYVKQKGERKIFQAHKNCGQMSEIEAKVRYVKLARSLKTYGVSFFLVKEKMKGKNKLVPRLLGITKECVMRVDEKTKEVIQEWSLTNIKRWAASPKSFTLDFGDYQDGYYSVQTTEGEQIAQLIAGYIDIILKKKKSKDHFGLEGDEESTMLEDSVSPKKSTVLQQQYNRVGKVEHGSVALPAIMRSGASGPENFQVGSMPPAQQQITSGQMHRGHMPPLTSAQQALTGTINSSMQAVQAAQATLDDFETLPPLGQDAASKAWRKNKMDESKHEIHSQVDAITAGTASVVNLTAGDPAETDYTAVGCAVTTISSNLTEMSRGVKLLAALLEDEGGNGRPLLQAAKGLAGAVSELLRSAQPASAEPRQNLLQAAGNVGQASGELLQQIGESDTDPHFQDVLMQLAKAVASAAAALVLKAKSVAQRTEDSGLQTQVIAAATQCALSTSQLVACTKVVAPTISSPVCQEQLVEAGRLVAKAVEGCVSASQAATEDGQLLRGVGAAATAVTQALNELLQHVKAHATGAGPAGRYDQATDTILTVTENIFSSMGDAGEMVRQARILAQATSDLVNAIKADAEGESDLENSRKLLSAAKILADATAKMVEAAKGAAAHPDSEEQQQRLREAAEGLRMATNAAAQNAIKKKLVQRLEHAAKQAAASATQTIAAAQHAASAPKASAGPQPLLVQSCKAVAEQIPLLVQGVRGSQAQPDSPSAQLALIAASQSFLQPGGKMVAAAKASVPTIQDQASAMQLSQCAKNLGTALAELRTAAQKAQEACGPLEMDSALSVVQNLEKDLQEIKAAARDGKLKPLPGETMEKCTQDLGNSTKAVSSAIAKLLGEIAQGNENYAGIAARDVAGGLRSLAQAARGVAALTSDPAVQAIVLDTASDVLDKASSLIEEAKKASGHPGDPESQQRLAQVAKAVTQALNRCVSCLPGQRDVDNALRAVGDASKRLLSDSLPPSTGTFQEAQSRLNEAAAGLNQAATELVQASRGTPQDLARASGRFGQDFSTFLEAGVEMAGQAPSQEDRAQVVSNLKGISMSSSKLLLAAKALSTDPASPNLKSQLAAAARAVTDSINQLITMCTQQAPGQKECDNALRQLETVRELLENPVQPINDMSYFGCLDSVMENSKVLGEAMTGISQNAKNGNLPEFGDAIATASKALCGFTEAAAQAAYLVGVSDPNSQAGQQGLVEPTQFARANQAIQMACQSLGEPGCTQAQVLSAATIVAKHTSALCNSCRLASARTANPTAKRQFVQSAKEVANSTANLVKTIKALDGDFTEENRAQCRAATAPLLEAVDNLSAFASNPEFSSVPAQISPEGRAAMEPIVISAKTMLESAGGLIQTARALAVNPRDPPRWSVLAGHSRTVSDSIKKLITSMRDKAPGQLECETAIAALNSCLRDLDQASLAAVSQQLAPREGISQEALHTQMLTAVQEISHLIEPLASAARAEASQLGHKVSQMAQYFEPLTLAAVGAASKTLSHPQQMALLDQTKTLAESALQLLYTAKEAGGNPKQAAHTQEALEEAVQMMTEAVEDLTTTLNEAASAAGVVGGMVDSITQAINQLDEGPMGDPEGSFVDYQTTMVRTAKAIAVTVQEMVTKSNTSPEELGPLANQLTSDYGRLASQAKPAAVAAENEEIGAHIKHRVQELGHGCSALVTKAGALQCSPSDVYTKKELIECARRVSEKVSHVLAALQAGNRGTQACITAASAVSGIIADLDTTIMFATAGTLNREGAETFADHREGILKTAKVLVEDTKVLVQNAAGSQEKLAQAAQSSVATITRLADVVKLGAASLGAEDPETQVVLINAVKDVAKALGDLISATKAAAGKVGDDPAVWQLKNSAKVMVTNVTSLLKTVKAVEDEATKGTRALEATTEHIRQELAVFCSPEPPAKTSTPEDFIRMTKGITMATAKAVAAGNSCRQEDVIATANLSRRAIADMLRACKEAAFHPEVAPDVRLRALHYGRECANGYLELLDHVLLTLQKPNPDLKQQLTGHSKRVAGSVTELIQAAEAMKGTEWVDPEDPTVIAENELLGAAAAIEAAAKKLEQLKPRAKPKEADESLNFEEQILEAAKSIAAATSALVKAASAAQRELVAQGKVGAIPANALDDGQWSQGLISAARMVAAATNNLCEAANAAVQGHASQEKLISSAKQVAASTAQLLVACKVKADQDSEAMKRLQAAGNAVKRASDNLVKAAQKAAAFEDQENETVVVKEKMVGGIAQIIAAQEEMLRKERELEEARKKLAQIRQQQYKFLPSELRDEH
UniProt P42227: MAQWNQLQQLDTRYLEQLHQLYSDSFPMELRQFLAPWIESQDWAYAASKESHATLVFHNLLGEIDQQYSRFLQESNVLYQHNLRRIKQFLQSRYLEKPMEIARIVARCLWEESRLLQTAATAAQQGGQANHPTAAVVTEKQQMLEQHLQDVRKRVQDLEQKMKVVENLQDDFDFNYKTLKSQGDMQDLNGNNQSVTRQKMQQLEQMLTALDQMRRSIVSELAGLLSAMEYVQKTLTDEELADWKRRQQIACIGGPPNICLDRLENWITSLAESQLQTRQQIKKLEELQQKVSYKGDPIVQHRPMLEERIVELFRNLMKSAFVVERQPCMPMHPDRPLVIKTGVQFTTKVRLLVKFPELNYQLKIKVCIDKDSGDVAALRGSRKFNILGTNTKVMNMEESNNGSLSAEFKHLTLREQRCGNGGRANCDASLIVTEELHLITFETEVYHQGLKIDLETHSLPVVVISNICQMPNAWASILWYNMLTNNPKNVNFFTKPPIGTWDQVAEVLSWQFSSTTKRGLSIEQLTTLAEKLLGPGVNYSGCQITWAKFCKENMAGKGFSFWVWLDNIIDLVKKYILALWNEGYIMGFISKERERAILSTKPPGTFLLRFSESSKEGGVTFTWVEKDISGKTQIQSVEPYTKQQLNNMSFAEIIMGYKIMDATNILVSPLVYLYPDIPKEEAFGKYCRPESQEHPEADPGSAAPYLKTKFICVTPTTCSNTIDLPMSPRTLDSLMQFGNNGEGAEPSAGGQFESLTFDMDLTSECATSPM
UniProt P52631: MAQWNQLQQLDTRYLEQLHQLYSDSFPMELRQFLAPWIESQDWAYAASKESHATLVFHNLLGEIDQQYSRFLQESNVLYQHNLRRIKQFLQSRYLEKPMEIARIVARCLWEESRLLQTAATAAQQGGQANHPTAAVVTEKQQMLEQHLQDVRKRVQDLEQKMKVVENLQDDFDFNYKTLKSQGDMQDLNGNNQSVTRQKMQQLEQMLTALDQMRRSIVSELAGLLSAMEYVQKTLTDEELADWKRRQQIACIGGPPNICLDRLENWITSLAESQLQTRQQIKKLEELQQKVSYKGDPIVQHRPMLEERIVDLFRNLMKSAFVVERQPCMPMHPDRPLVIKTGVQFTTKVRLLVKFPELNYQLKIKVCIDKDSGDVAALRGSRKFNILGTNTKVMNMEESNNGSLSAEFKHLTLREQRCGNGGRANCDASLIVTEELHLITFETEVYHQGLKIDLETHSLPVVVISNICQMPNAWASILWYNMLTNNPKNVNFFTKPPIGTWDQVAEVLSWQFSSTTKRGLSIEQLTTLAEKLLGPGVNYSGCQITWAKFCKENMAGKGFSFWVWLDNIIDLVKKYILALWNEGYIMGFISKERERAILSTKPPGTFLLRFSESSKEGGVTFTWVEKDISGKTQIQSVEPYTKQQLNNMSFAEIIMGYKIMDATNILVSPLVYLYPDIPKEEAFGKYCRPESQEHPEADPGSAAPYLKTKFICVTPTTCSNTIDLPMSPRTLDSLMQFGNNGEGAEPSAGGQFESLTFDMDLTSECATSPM

Legend:
[1] = molecular target: smad ubiquitination regulatory factor 1 (Smurf1) (UniProt Q9CUN6); experiment: co-IP; HEK293T cells transfected with the indicated plasmids, with or without Talin-1 and Smurf1 overexpression (Fig. 5D, E, H, I); lysed 48 h after transfection in IP buffer (50 mM Tris-HCl pH 8.0, 150 mM NaCl, 0.5% sodium deoxycholate, 1% NP-40), antibodies overnight at 4 °C, western blot
Talin-1 = Talin-1 (UniProt P26039); experiment: co-IP; INS1 cells transiently transfected with Talin-1 (Fig. 4P, 5B, C) or with siTln1 or siNC (Fig. 5F, G); lysed in IP buffer (50 mM Tris-HCl pH 8.0, 150 mM NaCl, 0.5% sodium deoxycholate, 1% NP-40), precleared with Protein A/G-agarose, antibodies overnight at 4 °C, western blot

Row | binding [1] | binding (Talin-1) | Substance
1 | binds | – | Talin-1 (from UniProt P26039 1-2541)
2 | binds | – | signal transducer and activator of transcription 3 (Stat3) (from UniProt P42227 1-770)
3 | – | no binding | signal transducer and activator of transcription 3 (Stat3) (from UniProt P52631 1-770)
